{
  "source": "paper PMC10163288",
  "binders": {"B1": {"name": "il10ra_site1_normal_mot_HHH_b1_06912_af2_000000235_0001_1_15_H_._HHH_b2_01017_af2_0001_0000100001_0000002_0_af2pred_0001 (protein)", "chain": "SSSSSSSKELEEIVKLIREALEIDDEEEAEQVLRRAEELAEENNNKLALLIIEFALRQLSSSSSS"}, "B2": {"name": "il10ra_site1_sap_12_mot_HHH_b2_02463_af2_000000222_0001_1_19_H_._HHH_b2_02639_af2_0001_0000400014_0000002_0_0001 (protein)", "chain": "SSSSDSLEKSIRILLEAAERMLEAGDPEYAERALHFALWDAERANDPIAEEIEELLERIGSSSSS"}, "B3": {"name": "il10ra_site1_normal_mot_HHH_b2_02337_000000026_0001_38_52_H_._96901828190b971c916e7b6b8058f7b9_0001_1_0001_0000200010_0000001_0 (protein)", "chain": "PIQEVIQRLVRLAFREGDPELLKALWKLVKLFEEGDPEAEELLEEVAELLKKDEEEAKRLLKELG"}, "B4": {"name": "il10ra_site1_normal_mot_8756ee2cf497b5429c717dfc0c0bcfd6_0001_000000186_0001_1_13_H_._HHH_b1_06578_af2_0001_0000300032_0000001_1_af2pred_0001 (protein)", "chain": "SSSSSIAEEVFRLLREAAELYHEGDKEKAEEILKEAEELAEEANDEIAKVIIEFLKRAIENSSSS"}, "B5": {"name": "il10ra_site1_sap_18_mot_HHH_b1_00682_000000235_0001_1_20_H_._HHH_b2_01115_0001_0000400025_0000001_0_0001_af2pred_dldesign_0_af2pred (protein)", "chain": "SSSDPDRLFEAAKHAIRVLLEEGRPEEAEATLDYYAALFEAMGKPEYAEELKKYYEKLKKEISSS"}, "B6": {"name": "il10ra_site1_sap_12_mot_HHH_b1_00456_000000263_0001_1_17_H_._HHH_b2_05065_0001_0000200009_0000001_0_0001_af2pred_0001 (protein)", "chain": "SSSSSSSELERLLEEIEEALERGDPQEALKLSREAARLAAELNDHEVLRILAELLKEIFSSSSSS"}, "B7": {"name": "il10ra_site1_sap_14_mot_HHH_b1_02492_000000051_0001_1_21_H_._HHH_b2_03656_0001_0000600043_0000002_0_0001_af2pred_dldesign_0_af2pred (protein)", "chain": "SSSSSPLEKAKAYYTEVLELAKEKNNLDALKSSLRALLHVAKLMGDEELAAELEAELKELESSSS"}, "B8": {"name": "il10ra_site1_normal_mot_HHH_b1_06256_000000091_0001_42_58_H_._HHH_b2_07403_0001_0000100014_0000001_0 (protein)", "chain": "SSSDTEQRVAELLFRAVRLLFEGNPEEAEKLVEEAERLAEELNDPELERYVEILLHFVKAHSSSS"}, "B9": {"name": "il10ra_site1_normal_mot_HHH_b1_06125_000000022_0001_1_19_H_._HHH_b1_05627_0001_0000300026_0000001_0 (protein)", "chain": "SSSSSEEREEALELIRQIARLLLRGNPEEARRLLEELRELVEEIGDPALEKAVRILEEAASSSSS"}, "B10": {"name": "il10ra_site1_sap_17_mot_HHH_b2_02463_af2_000000222_0001_1_19_H_._HHH_b1_05005_0001_0000200009_0000001_0_0001 (protein)", "chain": "SSSSSDRQEILELLKKAVRAALHGNPEEARELLEEAKELAEELNDERALKMIEDLLRALNSSSSS"}, "B11": {"name": "il10ra_site1_normal_mot_HHH_b1_06798_000000292_0001_1_19_H_._HHH_b1_01886_0001_0000100008_0000001_0 (protein)", "chain": "SSSSTLEFSVKFALRVAEQLREAGDPERVRILLEKLLEHLKEAKDPELYEEVEELLERLEKSSSS"}, "B12": {"name": "il10ra_site1_sap_24_mot_HHH_b2_00952_af2_000000228_0001_1_18_H_._HHH_b2_02316_0001_0000200021_0000001_0_0001_af2pred_0001 (protein)", "chain": "SSSSSDELRIRALLFLARAAERTGNPKAAKILLEWAEKLARELGDEELLEEIEELLEKLEKSSSS"}, "B13": {"name": "il10ra_site1_normal_mot_HHH_b2_00984_000000042_0001_1_20_H_._HHH_b1_02159_0001_0000100001_0000001_0 (protein)", "chain": "SSSSSDEEVEERVEELLEEAKQIDDPRERARLLLEATRLALQLSDAELLKEVWEVIKKLASSSSS"}, "B14": {"name": "il10ra_site1_sap_28_mot_9c3e5e2d2b9ffb70dc788f52fbfab6d5_0001_1_000000198_0001_1_14_H_._HHH_b1_02400_0001_0000300013_0000001_0_0001 (protein)", "chain": "SSSSSEEVEELLEEAEEALKNGDPEKARELILEALQIAFRLKDPELLQKVWKVLKEIAEKASSSS"}, "B15": {"name": "il10ra_site1_sap_16_mot_HHH_b2_03328_af2_000000127_0001_1_19_H_._HHH_b1_02175_0001_0000100001_0000002_0_0001 (protein)", "chain": "SSSSSEEERYLELSLRFLRWLLEVGDEEAAERMARILLELAEDLNDEEVRREVEEILKELSSSSS"}, "B16": {"name": "il10ra_site1_normal_mot_HHH_b1_01821_000000158_0001_23_39_H_._ems_p1-15H-GBL-16H-GABBL-16H_0222_0001_0001_0002_af2_0001_0000700013_0000001_0 (protein)", "chain": "SSSSSDFVRAILEAVRLALEAGDEEALQRLWEIFKKAINGKMSEEEAEERAEEIAKELESSSSSS"}, "B17": {"name": "il10ra_site1_sap_16_mot_HHH_b1_06789_af2_000000041_0001_1_20_H_._HHH_b1_04240_af2_0001_0000500015_0000001_0_0001 (protein)", "chain": "SSSSSDEEYEEEVERLLEEAEKIPDPREAAEVLLKALRVALRGNDPELLHLVWEVLEEISSSSSS"}, "B18": {"name": "il10ra_site1_normal_mot_HHH_b1_05357_000000034_0001_23_39_H_._HHH_b2_02453_0001_0000100002_0000002_0_af2pred_dldesign_0_af2pred (protein)", "chain": "SSSSDVEARLQELLDEARKEKDRLKRSHILLQAHSLANAQKDPALVARVEEESLRIVQESSSSSS"}, "B19": {"name": "il10ra_site1_sap_14_mot_HHH_b1_03559_000000151_0001_22_39_H_._ems_p1-15H-GBL-16H-GBL-16H_0017_0001_0001_0002_af2_0001_0000300022_0000001_1_0001 (protein)", "chain": "SSSSDTEVREQVIKLAREIFRLLLRGNPEEAEEVLKELEEVAEKYNDPAAREMVKILRQAVSSSS"}},
  "note": "Some of the results follow.",
  "data": [
    {"target": "il10ra, Q13651", "experiment": "yeast display titration", "values": [
      {"binder": "B1", "apparent Kd": "inactive: no binding seen"},
      {"binder": "B2", "apparent Kd": "inactive: no binding seen"},
      {"binder": "B3", "apparent Kd": "inactive: no binding seen"},
      {"binder": "B4", "apparent Kd": "inactive: no binding seen"},
      {"binder": "B5", "apparent Kd": "inactive: > 0.67 µM"},
      {"binder": "B6", "apparent Kd": "inactive: no binding seen"},
      {"binder": "B7", "apparent Kd": "inactive: no binding seen"},
      {"binder": "B8", "apparent Kd": "inactive: no binding seen"},
      {"binder": "B9", "apparent Kd": "inactive: no binding seen"},
      {"binder": "B10", "apparent Kd": "inactive: no binding seen"},
      {"binder": "B11", "apparent Kd": "inactive: no binding seen"},
      {"binder": "B12", "apparent Kd": "inactive: no binding seen"},
      {"binder": "B13", "apparent Kd": "inactive: no binding seen"},
      {"binder": "B14", "apparent Kd": "inactive: no binding seen"},
      {"binder": "B15", "apparent Kd": "inactive: no binding seen"},
      {"binder": "B16", "apparent Kd": "inactive: no binding seen"},
      {"binder": "B17", "apparent Kd": "inactive: no binding seen"},
      {"binder": "B18", "apparent Kd": "inactive: no binding seen"},
      {"binder": "B19", "apparent Kd": "inactive: no binding seen"}
    ]}
  ]
}
